The campaign covered roughly 140,000 compounds. About 4,300 (3.1%) were called active. Inconclusive means that the source gave no clear call. Such entries were picked first, then a sample of the others.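 The calls were made as follows: active = readout at or below -70, meaning at least 70% loss of cells showing the perinucleolar compartment, a nuclear body marking cancer cells; inconclusive = readout between -30 and a set limit; inactive = the rest.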
Assay: High Content Assay for Compounds that inhibit the Assembly of the Perinucleolar Compartment;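 also: plate controls were DMSO wells for no effect and camptothecin positive control wells for full effect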
Details: PC3M PTB-GFP, PNC prevalence imaging, 16 h; at 10 µM; active compounds read low
Summary of the method: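 PC3M cells stably expressing PTB-GFP, 750–1000 cells/well, treated 16 h at 37 °C with compound (23 nl of library stock), in duplicate. After paraformaldehyde fixation and Hoechst stain, imaged at 20x; PNC prevalence scored by image analysis.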

SMILES | activity change (PNC), negative = inhibition
Cc1ccc(OCCn2c(C3CC(=O)N(Cc4ccccc4)C3)nc3ccccc32)cc1 (stereo not given) | inconclusive: -30.9%
CSc1cccc(NC(=O)Nc2ccccc2)c1 | inconclusive: -46.1%
Cn1c(NC(=O)C2c3ccccc3Oc3ccccc32)cc(=O)n(C)c1=O | inconclusive: -50.3%
O=C(CSc1ccc(Cl)cc1)Nc1ncccn1 | inconclusive: -43.2%
c1cnc(N2CCN(Cc3c[nH]c4ccccc34)CC2)nc1 | inactive: 16.2%
CCC(c1nnnn1CCc1ccccc1)N(Cc1ccco1)Cc1cc2c(C)ccc(C)c2[nH]c1=O (stereo not given) | inactive: 10.6%
CCn1c(SCC(=O)Nc2cc(C)on2)nnc1-c1ccc(S(=O)(=O)N2CCN(C)CC2)cc1 | inconclusive: -43.1%
c1ccc(NCc2nnc3n2CCCCC3)cc1 | inactive: 43.2%
CN(C)S(=O)(=O)c1cccc(-c2nn(-c3ccccc3)cc2/C=C(\C#N)c2nc3ccccc3[nH]2)c1 | inactive: -12.8%
CCOC(=O)C(C(=O)Nc1cccc(C)c1)C1CCCCC1 (stereo not given) | inconclusive: -34.8%
Cc1ccc(N(C(=O)c2ccccn2)C2(C(=O)NC3CCCC3)CCCCC2)cc1 | inconclusive: -43.2%
CCN(CC)S(=O)(=O)c1ccc(C(=O)NCc2cccs2)cc1 | inconclusive: -37%
CCN(C(C)=O)c1nc(CSc2nnc(NC(C)C)s2)cs1 | inconclusive: -32.5%
CC(C)Cn1c(-c2ccc(Br)o2)n[nH]c1=S | inactive: -24.4%
CCCCCC(=O)NC(NC(=S)N1CCOCC1)C(Cl)(Cl)Cl (stereo not given) | inconclusive: -39.8%
O=C1CCN1C1(C(=O)NC2CCCCC2)CCCC1 | inconclusive: -48.7%
CCN(CC)S(=O)(=O)c1cc(C(=O)N(C)CC(=O)Nc2ccc(Cl)cc2)ccc1Cl | inactive: 8.97%
COCc1cc(C)nc(OCC(=O)N/N=C/c2ccc(-c3cc([N+](=O)[O-])ccc3C)o2)c1C#N | inactive: -6.49%
COc1ccc(CC(=O)NCc2ccc3c(c2)OCO3)cc1 | inconclusive: -34%
Cc1c(N2C(=O)/C(=C\c3ccc(N(C)C)cc3)N(C)C2=S)c(=O)n(-c2ccccc2)n1C | inconclusive: -49.1%
CC(=O)N1CCN(C(=S)NC(=O)c2ccc(S(=O)(=O)N3CCOCC3)cc2)CC1 | inactive: 41%
CCCn1c(=O)c2ccccc2n2c(SCC(=O)c3ccc(CC)cc3)nnc12 | inconclusive: -34%
NC(=O)Cn1c(=O)n(C2CCCCC2)c(=O)c2c3c(sc21)CCCCC3 | inactive: 22.1%

3 compounds picked at random from those above:
SMILES | activity change (PNC), negative = inhibition
Cc1ccc(N(C(=O)c2ccccn2)C2(C(=O)NC3CCCC3)CCCCC2)cc1 | inconclusive: -43.2%
CCCn1c(=O)c2ccccc2n2c(SCC(=O)c3ccc(CC)cc3)nnc12 | inconclusive: -34%
Cc1ccc(OCCn2c(C3CC(=O)N(Cc4ccccc4)C3)nc3ccccc32)cc1 (stereo not given) | inconclusive: -30.9%

The list continues:

SMILES | activity change (PNC), negative = inhibition
Nc1ccc(Br)c2c1C(=O)c1ccccc1C2=O | inconclusive: -37.4%
COc1ccc(-n2cccc2C=O)cc1OC | inactive: 14.8%
Cc1ccccc1Cn1cc(NC(=O)c2nn(C)cc2Cl)cn1 | inconclusive: -38.1%
O=C(Nc1ccc2nc(-c3ccco3)c(-c3ccco3)nc2c1)N1CCCCCC1 | inconclusive: -42.5%
Cn1c(C23CC4CC(CC(C4)C2)C3)n[nH]c1=S | inconclusive: -77.7%
C=CCn1c(SCC(=O)Nc2ncc(Cc3cc(Cl)ccc3Cl)s2)nnc1-c1ccncc1 | inconclusive: -32.8%
O=C1C2C(C(=O)N1Cc1cccnc1)C1C=CC2C12CC2 (stereo not given) | inconclusive: -33%
O=C(Nc1cc(Cl)cc(Cl)c1)c1cnn2cccnc12 | inconclusive: -37.4%
CC1C/C(=N/Nc2nc3ccccc3[nH]2)CC(C)(C)C1 (stereo not given) | inconclusive: -37.8%
COc1cc(OC)c(C2SCCS2)c(OC)c1 | inconclusive: -39.2%
Cc1ccc(C(=O)N/C(=C\c2ccco2)C(=O)NCCCn2ccnc2)cc1C | inactive: 2.85%
CCOC(=O)COc1ccc(C(=O)NC2CCCCC2)cc1 | inconclusive: -69.5%
Cc1cccc(C)c1Nc1nnc(SCC(=O)Nc2sccc2C#N)s1 | inconclusive: -36.7%
CCOC(=O)N1CCN(CC(O)COc2ccc(OC)cc2C(C)(C)C)CC1 (stereo not given) | inactive: 36.2%
CC1CCCN(S(=O)(=O)c2ccc(NC(=O)CN3CCN(C)CC3)cc2)C1 (stereo not given) | inactive: 15.3%
ClCc1csc(-c2ccc(Cl)cc2)n1 | active: -113%
C(=N\c1nc2ccccc2[nH]1)/c1cccs1 | inconclusive: -32.4%
C=CCN1C(=O)C(C)(C)N(C(C)=O)c2ccccc21 | inactive: 75%
FC(F)(F)c1cc(-c2cccs2)n[nH]1 | inconclusive: -48.7%
COc1ccc(NC(=O)CC2SC(=NCc3ccccc3OC)NC2=O)cc1 (stereo not given) | inconclusive: -39.1%
CCn1c(-c2ccc(C(C)(C)C)cc2)n[nH]c1=S | active: -88.6%
O=[N+]([O-])c1ccc(N2CCN(c3ccc(O)cc3)CC2)c(Cl)c1 | inconclusive: -32.7%
Cc1ccc2nc(Cl)c(CN(C(=O)c3cnccn3)C3CCCCC3)cc2c1 | inconclusive: -58.1%

SMILES | activity change (PNC), negative = inhibition
Cc1ccc(S(=O)(=O)C2C(=O)NC3(C)CC2c2ccccc2O3)cc1 (stereo not given) | inconclusive: -62.5%
Cc1ccc2nc(/C(C#N)=C\c3ccc([N+](=O)[O-])o3)[nH]c2c1 | inactive: 32.3%
O=C(N/N=C/c1ccc(OC(=O)c2ccc3c(c2)OCO3)cc1)c1cncc(Br)c1 | inconclusive: -47.1%
CN(C)c1ccc(/C=N/Nc2ccc(-n3ccnc3)nn2)cc1 | inactive: 10.4%
CCC(C)NC(=O)c1cc(-c2ccc(OC)cc2)on1 (stereo not given) | inactive: -3.15%
Cc1onc(-c2ccccc2Cl)c1C(=O)Nc1ccc(S(=O)(=O)N2CCCC2)cc1 | inconclusive: -52%
O=C(COC(=O)c1ccc2c(c1)OCO2)NC1CCS(=O)(=O)C1 (stereo not given) | inconclusive: -37.1%
O=C(CN1CCCCCCC1)N/N=C/c1ccc(F)c(F)c1 | inactive: -1.05%
O=C(O)c1ccccc1Nc1ccc([N+](=O)[O-])cc1 | active: -86.9%
O=C(CCCCCCN1C(=O)c2ccccc2C1=O)Nc1nccs1 | inactive: 176%
C=C(C)[C@@H]1CCC2(C(=O)O)CC[C@]3(C)[C@H](CC[C@@H]4[C@@]5(C)CCC(=O)C(C)(C)[C@@H]5CC[C@]43C)[C@@H]12 (stereo not given in full) | active: -95.3%
COc1cc(CNCCN2CCOCC2)ccc1OCc1c(Cl)cccc1Cl | inconclusive: -38.8%
CCOc1ccc(Br)cc1CSC(=N)N | inconclusive: -49%
O=c1oc2ccccc2cc1-c1nc(-c2cccs2)cs1 | inconclusive: -41.6%
Cc1noc(C)c1COC(=O)CCCOc1ccc(Cl)cc1Cl | inactive: -26.4%
c1ccc(-c2cnn3nnnc3n2)cc1 | inactive: -10.7%
CCOC(=O)c1c(C)nc2c(c1-c1cc(OC)ccc1OC)C(=O)c1ccccc1-2 | inconclusive: -42.3%
COc1ccc(CCn2nnnc2C(c2ccc(C)cc2)N2CCN(C)CC2)cc1OC (stereo not given) | inconclusive: -30.9%
O=C(CSc1ccc(Cl)cc1)N1CCN(c2ncc(C(F)(F)F)cc2Cl)CC1 | inconclusive: -47.9%
Cc1nnc(SCC(=O)N2CCN(c3ccccc3)CC2)n1-c1ccccc1 | inconclusive: -67.2%
CC(C)(C)C(=O)Nc1ccc(C(=O)N/N=C/c2ccccc2OC(=O)c2ccc(Cl)cc2)cc1 | inconclusive: -53.1%
CC(=O)OC1COC(N2CCc3cc([N+](=O)[O-])ccc32)C(OC(C)=O)C1OC(C)=O (stereo not given) | inconclusive: -38.6%
Cc1ccc(C)c2[nH]c(=O)c(CN(Cc3cccs3)C(=S)NCc3ccco3)cc12 | inactive: 50.5%

SMILES | activity change (PNC), negative = inhibition
ON1C(c2ccccc2C(F)(F)F)N(O)[C@H]2CCCC[C@H]21 (stereo not given in full) | inactive: 53%
C/C(N)=N\S(=O)(=O)c1ccc(Cl)cc1 | inconclusive: -33.9%
CCCCN(C(=O)Cn1nnc2ccccc21)C(C(=O)NCCOC)c1ccc(OC)cc1 (stereo not given) | inconclusive: -30.1%
CCOC(=O)c1cc(C)sc1NC(=O)c1ccc(Cl)s1 | inconclusive: -35.1%
CCn1c(COc2ccc(C)cc2)nnc1SCC(=O)NNC(=O)c1ccc(OC)cc1 | active: -82.7%
Cc1cc(C)c2c(N)c(C(=O)Nc3ncc(C)s3)sc2n1 | inactive: -7.2%
Cn1c(=O)cc(SCC(=O)NCC2CCCO2)c2ccc(Cl)cc21 (stereo not given) | inactive: -10.5%
COc1cccc(-n2nnc3c(=O)n(CC(=O)N4CCC(Cc5ccccc5)CC4)cnc32)c1 | inactive: 10.4%
O=C1CCCN1CN(C(=O)c1ccccc1)c1ccc(F)cc1 | inconclusive: -45.4%
N#Cc1ccccc1Sc1ccccc1C(=O)OCC(=O)N1CCN(C(=O)c2ccco2)CC1 | inactive: -28.3%
CO/N=C/NC(=O)c1c(OC)ccnc1Oc1ccccc1 | inactive: 36.6%
O=C(Nc1ccc2c(c1)OCCO2)C1CCN(C(=O)c2ccc(Br)cc2)CC1 | inactive: 5.92%
COc1cc(S(=O)(=O)N2CCC(c3nc4ccccc4s3)CC2)ccc1S(=O)(=O)NC1CCCC1 | active: -100%
COc1cc(-c2nnc(SCC(=O)c3ccccc3)o2)cc(OC)c1OC | inconclusive: -51.9%
CCC(=O)Nc1ccc(-c2csc(NNC(C)=O)n2)cc1 | inconclusive: -32.3%
CCn1c2ccccc2c2nnc(SCC(=O)Nc3ncccn3)nc21 | inconclusive: -42.3%
C/C=C/Cn1c(SCCCc2ccccc2)nc2c1c(=O)[nH]c(=O)n2C | active: -119%
CN1Cc2cc(C(=O)c3ccccc3O)cnc2NC1=O | inconclusive: -46.8%
O=C(Nc1ccc(SC(F)F)cc1)C12CCC(CC1)C2 | active: -113%
CC(NC(=S)N1CCOCC1)c1ccccc1 (stereo not given) | active: -121%
CCn1c(=O)cc(O)c2c(=O)n(C)c(=O)n(C)c21 | inconclusive: -46.2%

Source: PubChem BioAssay AID2417 (National Center for Advancing Translational Sciences (NCATS), 2010)
